In publication doi:10.1101/2024.07.30.605880:
Results are given in words; binding and its absence hold for the method and conditions named. Some entries that bind do so weakly or less than the wild type.

Amino acid sequences for entries named in this document (tags omitted). Residues count along the entry.
UniProt P26718, residues 73-216: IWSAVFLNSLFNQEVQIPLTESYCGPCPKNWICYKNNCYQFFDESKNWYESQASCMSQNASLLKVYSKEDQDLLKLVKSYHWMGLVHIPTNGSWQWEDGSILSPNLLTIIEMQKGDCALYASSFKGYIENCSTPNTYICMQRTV

Molecular target: T1, human MICA expressed on MC38 cells (human) (UniProt Q29983)
T1 sequence: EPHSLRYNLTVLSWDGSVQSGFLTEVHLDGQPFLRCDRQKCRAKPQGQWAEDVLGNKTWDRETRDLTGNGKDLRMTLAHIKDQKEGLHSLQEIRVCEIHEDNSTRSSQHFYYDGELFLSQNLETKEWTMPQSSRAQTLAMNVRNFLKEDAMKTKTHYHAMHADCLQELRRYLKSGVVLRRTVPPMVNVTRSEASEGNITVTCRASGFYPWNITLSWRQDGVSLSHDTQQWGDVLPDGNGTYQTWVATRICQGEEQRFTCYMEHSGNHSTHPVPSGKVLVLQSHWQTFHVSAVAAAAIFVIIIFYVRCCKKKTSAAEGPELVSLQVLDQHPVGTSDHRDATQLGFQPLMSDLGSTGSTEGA
Experiment: flow cytometry on cells

## NKG2D-Fc (from UniProt P26718 73-216) (Fc fusion)
  binding: binds
